These results are taken from paper PMC12040169 (PLOS Biology, 2025).

Structures are written as SMILES. The list shows a part of the results.

The subject of the test is T1, CTL2-GFP (C. trachomatis L2/434/Bu, GFP-expressing).
T1 construct: L2/434/Bu, GFP-expressing
On the set-up: species or system HeLa; Intracellular C. trachomatis growth in HeLa cells, bulk GFP fluorescence relative to DMSO. The following applies: bulk GFP, single well; 28.5 h, 10 µM; inhibitor.
Turning to `Cc1cc(C)nc(N2CCC(c3cc(CCOc4ccc(C(F)(F)F)cc4)[nH]n3)C2)n1` (stereo not drawn) [CBK286073], the “% of control remaining” value was 108.109%.

For the compound `O=C1Nc2ccc(C(=O)NCC(O)CO)cc2/C1=C/c1c[nH]c2ncccc12` (stereo not drawn) [CBK115363C], the “% of control remaining” value is listed as 74.9096%.

As to `CC(NC(=O)Nc1ccccc1O)(C(F)(F)F)C(F)(F)F` [CBK268019], the “% of control remaining” value is on record as 77.3459%.

For `C#CCn1nnc2ccccc21` [CBK028164], the “% of control remaining” value was found to be 95.933%.

As for `O=[N+]([O-])c1nn(-c2ccc(Cl)cc2)[n+]([O-])c1NCc1ccccn1` [CBK268270], the “% of control remaining” value was 85.1097%.

On to `CC1(C)[C@H]2CC/C(=N/O)[C@]1(C)NC2=O` [CBK006513], for which the “% of control remaining” value was 125.833%.

For the compound `COc1ccc(CCCC(=O)Nc2cc(N3CCNCC3)ncn2)cc1OC` [CBK107856], the “% of control remaining” value is listed as 97.9692%.

Turning to `Cc1ccc(N2CCN(S(=O)(=O)c3ccc(I)cc3)CC2)c(C)c1` [CBK098562], the “% of control remaining” value was 123.699%.

Regarding `CC(C)Cc1csc2nc(-c3ccc(Br)cc3)oc(=O)c12` [CBK026692], the “% of control remaining” value is 107.369%.

As for `O=C(Nc1ccccc1C(=O)NCc1ccccc1)c1cccc(F)c1` [CBK269351], the “% of control remaining” value worked out at 157.933%.

For the compound `Cc1ccc(CN(CCCN2CCOCC2)Cc2ccoc2)o1` [CBK283234], the “% of control remaining” value is listed as 132.228%.

With `O=C1OCC(O)=C1C(c1ccccc1)C1CC1` (stereo not drawn) [CBK010731], the “% of control remaining” value is reported as 124.449%.

`CC1(C)Cc2c(c(-c3ccco3)nc3[nH]nc(N)c23)CO1` [CBK009252]: the “% of control remaining” value is recorded as 130.191%.

As for `CC(C)(C)c1ccc(-c2nc(O)c(CC(=O)O)s2)cc1` [CBK067734], the “% of control remaining” value is 143.798%.

On to `O=C1CCCN1c1ccc(S(=O)(=O)N2CCN(c3ccccn3)CC2)cc1` [CBK268237], for which the “% of control remaining” value is listed as 157.103%.

`O=C(Nc1cc(N2CCCS2(=O)=O)ccc1F)c1cccnc1O` [CBK306320]: the “% of control remaining” value is given as 90.7343%.

Turning to `CCN(CC(=O)N1CCN(Cc2ccc3c(c2)OCO3)CC1)S(=O)(=O)c1ccccc1` [CBK269436], the “% of control remaining” value was 100.149%.

Turning to `CCCOC1CCCN(C(=O)c2ccc(-c3ccc(Cl)cn3)cc2)C1` (stereo not drawn) [CBK306540], the “% of control remaining” value was 145.979%.

As to `CCCc1cc(CNC(=O)c2cc(C3CC3)nn2C)on1` [CBK282048], the “% of control remaining” value amounted to 95.4509%.

Take `S=C(NCCN1CCCCC1)NCc1ccccc1` [CBK263066]: the “% of control remaining” value came to 96.6416%.

Consider `Cc1ncn(Cc2nc(-c3ccsc3)no2)c(=O)c1C` [CBK304158], for which the “% of control remaining” value stood at 118.695%.

With `COc1cccc(OCC(=O)Nc2ccc(Cl)cc2C(=O)O)c1` [CBK264208], the “% of control remaining” value turned out to be 136.886%.

Turning to `NCc1ccc(CN(Cc2cccc(Cl)c2)C(=O)NC(c2ccccc2)c2ccccc2)cc1` [CBK046087C], the “% of control remaining” value is on record as 54.0897%.

For `NS(=O)(=O)c1ccc(CCNCc2ccc3c(c2)OCO3)cc1` [CBK269819C], the “% of control remaining” value was 101.179%.

Turning to `O=C(NCCc1c[nH]c2ccccc12)c1cccs1` [CBK231038], the “% of control remaining” value worked out at 107.66%.

In the case of `Cc1ccccc1Nc1nc(-c2ccc([N+](=O)[O-])cc2)nc2ccccc12` [CBK264803], the “% of control remaining” value amounted to 109.484%.

In the case of `Cc1csc(C(Cc2ccsc2)NC(=O)Cn2cccn2)n1` (stereo not drawn) [CBK282831], the “% of control remaining” value was found to be 118.686%.

Consider `CC(C)NC(=O)C1CCN(c2nc3ccccc3n2C)CC1` [CBK283986], for which the “% of control remaining” value was found to be 110.697%.

`O=C(OCC#CCSc1nnc(-c2ccccc2)o1)c1ccc([N+](=O)[O-])cc1` [CBK265588]: the “% of control remaining” value is 100%.

Take `CCN(Cc1ccncc1)C(=O)NCCCN1CCN(C)CC1` [CBK155123]: the “% of control remaining” value came out at 114.741%.

For `Fc1ccc(-c2cn(-c3ccc4c(c3)CCO4)nn2)cc1` [CBK113132], the “% of control remaining” value is recorded as 84.8245%.

As for `CC1(C)CC(=O)C=C(C(=O)NCc2c(F)cccc2F)O1` [CBK153287], the “% of control remaining” value is 100%.

On to `N#Cc1ccc(CN2C[C@@H]3OCC(=O)N[C@@H]3C2)cc1` [CBK289261], for which the “% of control remaining” value stood at 135.76%.

On to `Cc1nn(CCC(=O)NC(c2ccccc2)c2cccnc2)c(C)c1C` (stereo not drawn) [CBK282547], for which the “% of control remaining” value came out at 111.624%.

Consider `COc1ccccc1NC(=O)COc1ccc(C)cc1[N+](=O)[O-]` [CBK269724], for which the “% of control remaining” value is given as 131.048%.

In the case of `O=C(Cc1ccc(F)cc1)Nc1nc(-c2cccs2)cs1` [CBK287736], the “% of control remaining” value is listed as 83.4387%.

`COc1cc(NS(=O)(=O)c2ccc(Nc3nc(-c4sc(N)nc4C)cs3)cc2)nc(OC)n1` [CBK262796]: the “% of control remaining” value is 31.0041%.

As to `COc1cccc(CN[C@@H]2CCC[C@H]2Cc2cc(C)no2)c1` [CBK283006], the “% of control remaining” value worked out at 94.2705%.

On to `CCOc1ccc2nc(NS(=O)(=O)c3cccc(C(=O)O)c3)sc2c1` [CBK161137], for which the “% of control remaining” value is on record as 119.113%.

As for `Cc1cc(C)c2c(c1)cc(C)c1nn(CC(=O)NC3CC3)c(=O)n12` [CBK283877], the “% of control remaining” value was found to be 107.463%.

Take `CCCNC(=O)Cn1cnc2sc(C(=O)Nc3ccccc3OC)c(C)c2c1=O` [CBK071910]: the “% of control remaining” value came out at 129.843%.

On to `CC1(C)Cc2cccc(OCC(=O)O)c2O1` [CBK270161], for which the “% of control remaining” value is listed as 132.879%.

For `Nc1nnc(SC/C=C/CSc2nnc(N)s2)s1` [CBK263092], the “% of control remaining” value is listed as 118.463%.

Turning to `Cc1ccc(C(=O)NCc2ccc3c(c2)CCO3)c(N2CCOCC2)n1` [CBK106202], the “% of control remaining” value turned out to be 104.406%.

Regarding `CC(C)c1cc(C(=O)N2CCN(C)C(=O)C2Cc2ccccc2-c2ccc(F)cc2)[nH]n1` (stereo not drawn) [CBK285833], the “% of control remaining” value came out at 131.882%.

For the compound `C/C(=C(/C(=O)N(N)c1nc2ccccc2s1)C(=O)C(F)(F)F)N1CCC(C(N)=O)CC1` [CBK265758], the “% of control remaining” value was 100%.

For `Cc1cc(C)n(CCCC(=O)N2C[C@H]3CCc4c[nH]nc4[C@H]3C2)n1` [CBK284573], the “% of control remaining” value came to 71.7334%.

Take `O=S(=O)(NCCCn1ccnc1)c1cc(Cl)ccc1Cl` [CBK261767]: the “% of control remaining” value is 100%.

As for `Cc1nnc2sc(-c3ccc(CNC(=S)NC(=O)c4ccccc4[N+](=O)[O-])cc3)nn12` [CBK268588], the “% of control remaining” value is reported as 153.598%.

Turning to `CCC(CC)C(=O)N1CCC(c2nnc3n2CCCCC3)CC1` [CBK284614], the “% of control remaining” value is on record as 160.136%.

Regarding `O=C(NC(=S)Nc1ccc(-c2ccc(CO)o2)cc1)c1ccc2c(c1)OCCO2` [CBK269038], the “% of control remaining” value was found to be 140.442%.

For `COc1ccc(-c2nn(-c3ccccc3)cc2/C=C2\SC(N3CC(C)OC(C)C3)=NC2=O)cc1F` (stereo not drawn) [CBK265613], the “% of control remaining” value is given as 112.331%.

Consider `CS(=O)(=O)c1ncc(Cl)c(C(=O)N(Cc2ccccc2)c2ccccn2)n1` [CBK269489], for which the “% of control remaining” value stood at 52.4801%.

For `CCc1ccc(OC)c(S(=O)(=O)N2CCOCC2)c1` [CBK268214], the “% of control remaining” value stood at 84.2438%.

Turning to `COc1ccc2c(c1)c1nc(C)sc1n2CCN1CCCCC1` [CBK269909C], the “% of control remaining” value turned out to be 116.942%.

With `Cn1cc(C2CCCN2C(=O)Cc2csc3ccccc23)cn1` (stereo not drawn) [CBK305066], the “% of control remaining” value turned out to be 129.102%.

Take `O=C(CN1C(=O)N2CCCN=C2c2ccc(Cl)cc21)N1CCCC1` [CBK284387]: the “% of control remaining” value is reported as 118.32%.

`Cn1ccnc1SCC(=O)Nc1ccc(S(N)(=O)=O)cc1` [CBK263190]: the “% of control remaining” value came out at 113.342%.

Turning to `CC(=O)C(Sc1ccc2nnc(-c3ccc(C)cc3)n2n1)C(C)=O` [CBK287525], the “% of control remaining” value was 115.909%.

With `Cc1noc(C)c1NC(=O)c1ccccn1` [CBK200299], the “% of control remaining” value worked out at 87.7461%.

In the case of `Fc1ccccc1CN(CCCn1ccnc1)CC1CCOC1` (stereo not drawn) [CBK283031], the “% of control remaining” value was 110.349%.

With `O=C(N[C@@H](Cn1cc(Cl)c(=O)[nH]c1=O)C(=O)O)C1CC1` [CBK289649], the “% of control remaining” value is 102.374%.

Turning to `CCCC(=O)NCC1Cc2cc(F)cc(-c3ccc(C(C)=O)s3)c2O1` (stereo not drawn) [CBK306945], the “% of control remaining” value is given as 103.884%.

Regarding `CNC(=O)C1(Cc2ccccc2-c2cccc(F)c2)CCN(C(=O)Cc2ccccc2)CC1` [CBK285692], the “% of control remaining” value turned out to be 98.876%.

Consider `Cc1ccc(NC(=O)/C=C/C(=O)O)c(NC(=O)c2ccccc2)c1` [CBK286563], for which the “% of control remaining” value was found to be 107.936%.

With `CS(=O)(=O)c1ccc(-c2ccc(N)c3ccccc23)cc1` [CBK084326], the “% of control remaining” value turned out to be 110.864%.

Take `CN(C(=O)Cn1cccc(C(=O)NCC(C)(C)c2ccc(F)cc2)c1=O)C1CCCCC1` [CBK286112]: the “% of control remaining” value was determined as 88.0601%.

In the case of `O=C(Nc1ccc(-c2ccc(NC(=O)c3ccncc3)cc2)cc1)c1ccncc1` [CBK262321], the “% of control remaining” value was determined as 95.7097%.

For `CC(C)Nc1cc(SCCN(C)C)ncn1` [CBK105616], the “% of control remaining” value stood at 89.1382%.

In the case of `Nc1nc(O)c2c(n1)NC1(CCC1)[C@@H]1C[C@@H](O)[C@@H](O)[C@H]21` [CBK303248], the “% of control remaining” value came out at 86.231%.

As to `Cc1cccc(C)c1NC(=O)C(=O)NCCCN1CCOCC1` [CBK264850], the “% of control remaining” value is recorded as 100%.

Regarding `Cc1cc(C(=O)CSc2nnc(N3CCCC3)n2C2CC2)c(C)n1C` [CBK306051], the “% of control remaining” value is listed as 156.629%.

`Cc1ncc(C(=O)NC2(c3ccccc3F)CCCC2)c(C)n1` [CBK283274]: the “% of control remaining” value is 138.093%.

Take `Cc1cc(C)n(C)c(=O)c1C(=O)NCCCc1ccc(Cl)cc1` [CBK281566]: the “% of control remaining” value was found to be 124.711%.

With `Cc1cc(C)n(CC2CCCCN2C(=O)COc2cccnc2)n1` (stereo not drawn) [CBK304040], the “% of control remaining” value is 105.23%.

Regarding `Cc1ccc2c(c1)nc(CNC(=O)NCCCO)n2C` [CBK306174], the “% of control remaining” value was 104.11%.

For `CN(C)CCNc1nc(-c2ccncc2)cnc1N` [CBK063580], the “% of control remaining” value was determined as 155.868%.

In the case of `COc1ccc(-n2[nH]c(C)c(Cc3c(Cl)cccc3Cl)c2=O)cc1` [CBK084521], the “% of control remaining” value was determined as 105.014%.

As for `COc1cccc(C2(NC(=O)c3cnsc3)CCCC2)c1` [CBK283611], the “% of control remaining” value was found to be 121.549%.

Take `CCN(Cc1ccncc1)C(=O)NCc1cc(C)on1` [CBK155122]: the “% of control remaining” value amounted to 123.131%.

Regarding `CC(=O)Nc1ccc(S(=O)(=O)Nc2ccc(S(=O)(=O)Nc3ccc(C)c(C)c3)cc2)cc1` [CBK264643], the “% of control remaining” value came to 88.0059%.
